For assay [1], the target named is tetraspanin protein CD9 on human SCC cells (human) (UniProt P21926). As to the kind of experiment: cross-linking (DSP or DTSSP) and co-immunoprecipitation from surface-labeled SCC cells.
Assay [2] has as its target T1, tetraspanin protein CD9 on murine LL/2 cells (murine) (UniProt P40240).
T1 sequence (looked up): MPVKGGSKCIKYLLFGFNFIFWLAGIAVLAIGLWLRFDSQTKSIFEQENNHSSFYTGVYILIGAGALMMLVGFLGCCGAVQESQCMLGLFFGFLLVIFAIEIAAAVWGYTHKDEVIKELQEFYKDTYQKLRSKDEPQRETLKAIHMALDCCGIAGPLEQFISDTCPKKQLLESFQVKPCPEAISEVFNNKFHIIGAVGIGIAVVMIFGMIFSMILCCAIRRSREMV
As to the kind of experiment: cross-linking (DSP or DTSSP) and co-immunoprecipitation from surface-labeled LL/2 cells.

Amino acid sequences for entries named in this document (tags omitted). Residues count along the entry.
UniProt P21926, residues 2-228: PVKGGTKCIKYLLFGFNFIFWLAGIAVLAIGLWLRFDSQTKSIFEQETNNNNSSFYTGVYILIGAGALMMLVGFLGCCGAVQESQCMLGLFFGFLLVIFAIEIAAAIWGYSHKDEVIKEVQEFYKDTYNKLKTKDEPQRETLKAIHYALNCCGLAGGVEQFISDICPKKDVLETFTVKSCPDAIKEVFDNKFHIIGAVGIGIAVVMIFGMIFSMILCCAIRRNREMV

Results are given in words; binding and its absence hold for the method and conditions named. In cells and extracts the contact can be indirect. Some results given as binding are weak or reduced against the parent protein; the word gives no strength.

B1: colligin/CBP2/Hsp47 on the surface of human carcinoma cells (protein, UniProt P50454 19-418, looked up)
chain: AEVKKPAAAAAPGTAEKLSPKAATLAERSAGLAFSLYQAMAKDQAVENILVSPVVVASSLGLVSLGGKATTASQAKAVLSAEQLRDEEVHAGLGELLRSLSNSTARNVTWKLGSRLYGPSSVSFADDFVRSSKQHYNCEHSKINFRDKRSALQSINEWAAQTTDGKLPEVTKDVERTDGALLVNAMFFKPHWDEKFHHKMVDNRGFMVTRSYTVGVMMMHRTGLYNYYDDEKEKLQIVEMPLAHKLSSLIILMPHHVEPLERLEKLLTKEQLKIWMGKMQKKAVAISLPKGVVEVTHDLQKHLAGLGLTEAIDKNKADLSRMSGKKDLYLASVFHATAFELDTDGNPFDQDIYGREELRSPKLFYADHPFIFLVRDTQSGSLLFIGRLVRPKGDKMRDEL
Consider B1, for which the binding result in assay [1] is recorded as “binds”.

B2: colligin/Hsp47 on the surface of murine Lewis Lung Carcinoma (LL/2) cells (protein, UniProt P19324 18-417, looked up)
chain: AEVKKPLEAAAPGTAEKLSSKATTLAERSTGLAFSLYQAMAKDQAVENILLSPLVVASSLGLVSLGGKATTASQAKAVLSAEKLRDEEVHTGLGELLRSLSNSTARNVTWKLGSRLYGPSSVSFADDFVRSSKQHYNCEHSKINFRDKRSALQSINEWASQTTDGKLPEVTKDVERTDGALLVNAMFFKPHWDEKFHHKMVDNRGFMVTRSYTVGVTMMHRTGLYNYYDDEKEKLQMVEMPLAHKLSSLIILMPHHVEPLERLEKLLTKEQLKAWMGKMQKKAVAISLPKGVVEVTHDLQKHLAGLGLTEAIDKNKADLSRMSGKKDLYLASVFHATAFEWDTEGNPFDQDIYGREELRSPKLFYADHPFIFLVRDNQSGSLLFIGRLVRPKGDKMRDEL
Turning to B2, in assay [2], the binding result was “binds”.

(Values after patent US7361730B1, “Surface localized colligin/Hsp47 in carcinoma cells” (University of Maryland, priority 1999, dated 2008).)
